Reference: PubChem BioAssay AID624297 (National Center for Advancing Translational Sciences (NCATS), 2012)
Among all 340,000 compounds or so, about 6,200 (1.8%) were called active. This list was built around the results that the source calls inconclusive (neither active nor inactive); the mix of calls is not that of the screen. Calls come from the whole dose curve; as a rule, active = well fitted activation curve with a large enough effect; inconclusive = small, poorly fitted or top-dose-only effect; inactive = no such curve, though single readings can be large or run the other way. Potencies of inconclusive entries are doubtful fits and often do not repeat.

Test: A quantitative high throughput screen for small molecules that induce DNA re-replication in SW480 colon adenocarcinoma cells. Note: nearly all actives have a fitted effect of over 55% in size.
Settings: Hoechst DNA content imaging, 48 h; series mostly up to 46.1 µM
Method in brief: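 250 cells/well; 23 nL cpd via pin tool; 48 hr, 37 C, 5% CO2; Hoechst 40 min; imager read of total nuclear intensity, ex 405/em 500-530 nm.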
Potency is the fitted concentration of half-maximal effect.

Row | Compound | Potency
1 | O=[N+]([O-])c1ccc(NN=Cc2ccc3c(c2)OCO3)nc1 | inconclusive: 23.1 µM [activator, partial curve, poor fit]
2 | O=C(O)c1cccc(N/N=C/c2sc(N3CCOCC3)nc2-c2ccccc2)c1 | inconclusive: 16.4 µM [activator, partial curve, poor fit]
3 | CCCn1c(N)c(N(CCOC)C(=O)c2ccc(F)cc2)c(=O)[nH]c1=O | inactive
4 | Cc1ccc(S(=O)(=O)CC(=O)Nc2ccc3nc(C)sc3c2)cc1 | inactive
5 | Cc1cc2occ(CC(=O)NCc3cccs3)c2cc1C(C)C | inactive
6 | CCOC(=O)c1c(NC(=O)CCl)sc(CN(C)C)c1-c1ccccc1 | inconclusive: 25.9 µM [activator, partial curve, poor fit]
7 | Clc1ccc(CSc2ccc(-c3ccccn3)nn2)cc1 | inconclusive: 29.1 µM [activator, single point]
8 | CCCCOc1c(Br)cc(CNCCCN2CCOCC2)cc1OC | inconclusive: 29.1 µM [activator, single point]
9 | COc1ccc(S(=O)(=O)Cc2ccccc2)cc1N | active: 6.51 µM
10 | CC1(C)CC(O)(CCNCc2ccc3c(c2)OCO3)CCO1 (stereo not given) | inactive
11 | C(=N\Nc1ccc2ccccc2n1)/c1ccc2c(c1)OCCO2 | inconclusive: 16.4 µM [activator, single point]
12 | COc1ccc(CNS(=O)(=O)c2ccc3c(c2)N(C(C)=O)CCO3)cc1 | inconclusive: 32.6 µM [activator, partial curve, poor fit]
13 | COc1cc(OC)c2c(c1)OC(=O)CC2c1ccc2c(c1)OCO2 (stereo not given) | inconclusive: 20.6 µM [activator, single point]
14 | O=C(Cc1ccc(-c2ccccc2)cc1)NCc1cccnc1 | active: 23.1 µM
15 | CC(C)c1ccc(S(=O)(=O)c2cnc(=S)[nH]c2N)cc1 | inconclusive: 29.1 µM [activator, single point]
16 | COc1ccc(N2C(=O)c3ccccc3C2=O)cc1 | inactive
17 | COc1ccc(NC(=O)Nc2sc(=S)n(C)c2C)cc1 | inactive
18 | CCCCOc1ccc(C2CCC(C(C)=O)C(C)C2)cc1 (stereo not given) | inconclusive: 29.1 µM [activator, single point]
19 | CC(=O)c1c(N2CCN(C)CC2)nc(=S)n(Cc2ccccc2)c1C | inconclusive: 0.164 µM [activator, full curve, poor fit]
20 | CC(CC(=O)O)CC(=O)Nc1cc([N+](=O)[O-])ccc1O (stereo not given) | inconclusive: 0.092 µM [activator, full curve, poor fit]
21 | O=C(c1cccc(S(=O)(=O)N2CCOCC2)c1)N(Cc1nnc(-c2ccccc2Cl)o1)C1CC1 | inconclusive: 14.6 µM [activator, single point]
22 | CN1CCN(c2ccccc2NC(=O)c2ccc(-c3cccc([N+](=O)[O-])c3)o2)CC1 | inconclusive: 29.1 µM [activator, single point]
23 | Cc1cc(C)nc(NS(=O)(=O)c2ccc(N/C=C/C(=O)c3ccc(Cl)cc3)cc2)n1 | inconclusive: 29.1 µM [activator, single point]
24 | COc1cc(/C=C/C(=O)O)cc2c1OCCO2 | inconclusive: 6.51 µM [activator, single point]

From compound 2 as far as 23, copied from above:
Row | Compound | Potency
2 | O=C(O)c1cccc(N/N=C/c2sc(N3CCOCC3)nc2-c2ccccc2)c1 | inconclusive: 16.4 µM [activator, partial curve, poor fit]
3 | CCCn1c(N)c(N(CCOC)C(=O)c2ccc(F)cc2)c(=O)[nH]c1=O | inactive
4 | Cc1ccc(S(=O)(=O)CC(=O)Nc2ccc3nc(C)sc3c2)cc1 | inactive
5 | Cc1cc2occ(CC(=O)NCc3cccs3)c2cc1C(C)C | inactive
6 | CCOC(=O)c1c(NC(=O)CCl)sc(CN(C)C)c1-c1ccccc1 | inconclusive: 25.9 µM [activator, partial curve, poor fit]
7 | Clc1ccc(CSc2ccc(-c3ccccn3)nn2)cc1 | inconclusive: 29.1 µM [activator, single point]
8 | CCCCOc1c(Br)cc(CNCCCN2CCOCC2)cc1OC | inconclusive: 29.1 µM [activator, single point]
9 | COc1ccc(S(=O)(=O)Cc2ccccc2)cc1N | active: 6.51 µM
10 | CC1(C)CC(O)(CCNCc2ccc3c(c2)OCO3)CCO1 (stereo not given) | inactive
11 | C(=N\Nc1ccc2ccccc2n1)/c1ccc2c(c1)OCCO2 | inconclusive: 16.4 µM [activator, single point]
12 | COc1ccc(CNS(=O)(=O)c2ccc3c(c2)N(C(C)=O)CCO3)cc1 | inconclusive: 32.6 µM [activator, partial curve, poor fit]
13 | COc1cc(OC)c2c(c1)OC(=O)CC2c1ccc2c(c1)OCO2 (stereo not given) | inconclusive: 20.6 µM [activator, single point]
14 | O=C(Cc1ccc(-c2ccccc2)cc1)NCc1cccnc1 | active: 23.1 µM
15 | CC(C)c1ccc(S(=O)(=O)c2cnc(=S)[nH]c2N)cc1 | inconclusive: 29.1 µM [activator, single point]
16 | COc1ccc(N2C(=O)c3ccccc3C2=O)cc1 | inactive
17 | COc1ccc(NC(=O)Nc2sc(=S)n(C)c2C)cc1 | inactive
18 | CCCCOc1ccc(C2CCC(C(C)=O)C(C)C2)cc1 (stereo not given) | inconclusive: 29.1 µM [activator, single point]
19 | CC(=O)c1c(N2CCN(C)CC2)nc(=S)n(Cc2ccccc2)c1C | inconclusive: 0.164 µM [activator, full curve, poor fit]
20 | CC(CC(=O)O)CC(=O)Nc1cc([N+](=O)[O-])ccc1O (stereo not given) | inconclusive: 0.092 µM [activator, full curve, poor fit]
21 | O=C(c1cccc(S(=O)(=O)N2CCOCC2)c1)N(Cc1nnc(-c2ccccc2Cl)o1)C1CC1 | inconclusive: 14.6 µM [activator, single point]
22 | CN1CCN(c2ccccc2NC(=O)c2ccc(-c3cccc([N+](=O)[O-])c3)o2)CC1 | inconclusive: 29.1 µM [activator, single point]
23 | Cc1cc(C)nc(NS(=O)(=O)c2ccc(N/C=C/C(=O)c3ccc(Cl)cc3)cc2)n1 | inconclusive: 29.1 µM [activator, single point]

Additional structures follow:

Row | Compound | Potency
25 | Cc1ccc(OCc2ccc(C(=O)N3CCOCC3)cc2)cc1C | inactive
26 | Oc1ccccc1/C=N/N1CCCCC1 | inconclusive: 29.1 µM [activator, single point]
27 | CCOc1cc(C(=O)NCC(C)(C)CNC(=O)c2cc(OCC)c(OCC)c(OCC)c2)cc(OCC)c1OCC | inconclusive: 0.58 µM [activator, full curve, poor fit]
28 | CSc1sc2ccccc2[n+]1CCCS(=O)(=O)[O-] | inactive
29 | O=C(Cc1cccc2ccccc12)NNC(=O)c1ccc(Br)o1 | inconclusive: 29.1 µM [activator, partial curve, poor fit]
30 | O=C(NNc1ccc([N+](=O)[O-])cc1)c1ccco1 | inactive
31 | CCOC(=O)Nc1ccc(C(=O)/C=C/c2ccccc2)cc1 | inconclusive: 20.6 µM [activator, partial curve, poor fit]
32 | Nc1c2c(=O)oc(-c3ccccc3)cc2nn1-c1ccccc1 | active: 16.4 µM
33 | CN(C)CCCN(C(=O)c1ccc(C(=O)c2ccccc2)cc1)c1nc2cc3c(cc2s1)OCO3 | inconclusive: 18.4 µM [activator, single point]
34 | O=C(/C=C/c1ccc(Cl)cc1)N(Cc1ccccc1)c1ccccn1 | inconclusive: 29.1 µM [activator, single point]
35 | CCOc1ccc(NC(=O)Nc2ccc(Cc3ccncc3)cc2)cc1 | inconclusive: 9.2 µM [activator, partial curve]
36 | Cc1cc(C)n(-c2ccc(NC(=O)C3CCCCN3C(=O)c3sccc3C)cc2)n1 (stereo not given) | inconclusive: 20.6 µM [activator, partial curve, poor fit]
37 | CN(C)C(=S)Nc1cccc(F)c1 | inactive
38 | COC(=O)C1CCN(C(=O)COC(=O)c2oc3ccccc3c2C)CC1 | inconclusive: 1.03 µM [activator, single point]
39 | O=C(Cn1c(=O)cnc2ccccc21)Nc1cc(Cl)ccc1N1CCOCC1 | inconclusive: 29.1 µM [activator, single point]
40 | Cc1cccc(C)c1Nc1c(-c2ccc(N3CCOCC3)cc2)nc2ncccn12 | inactive
41 | Cc1cc(Cl)c(OCCCCN2CCOCC2)c(Br)c1 | inactive
42 | O=C1CCCc2c1oc1c2CCCC1 | inactive
43 | COC(=O)c1ccc(COC(=O)[C@@H]2CC(O)CN2S(=O)(=O)c2ccccc2[N+](=O)[O-])cc1 (stereo not given in full) | inactive
44 | COc1ccccc1Cn1c(=S)[nH]c2cc(C(=O)NCCN(C)C)ccc2c1=O | inconclusive: 25.9 µM [activator, single point]
45 | Nc1nccc(-c2ccc(-n3cccc3)cc2)n1 | inactive
46 | CC(=O)OC[C@H]1O[C@@H](n2ncc(=O)[nH]c2=O)[C@H](OC(C)=O)[C@@H]1OC(C)=O | inconclusive: 6.51 µM [activator, partial curve, poor fit]
47 | COc1cccc(-c2noc(C(C)n3nc(C)c([N+](=O)[O-])c3C)n2)c1 (stereo not given) | inconclusive: 32.6 µM [activator, partial curve, poor fit]
48 | COc1ccccc1NS(=O)(=O)c1cccc(C(=O)OCC(=O)NC2CC2)c1 | inconclusive: 11.6 µM [activator, single point]

Row | Compound | Potency
49 | C=CCNC(=O)C1CC(=O)N(c2ccc(OCC(=O)Nc3ccccc3)cc2)C1 (stereo not given) | inconclusive: 29.1 µM [activator, single point]
50 | CCSc1nc(N)c(C#N)c(-c2ccco2)c1C#N | inconclusive: 0.0517 µM [activator, full curve, poor fit]
51 | CCN1C[C@@H]2[C@@H]3C(=O)N(C)C(=O)[C@@H]3[C@](CC)(C1=O)N2C(=O)c1ccc(C(F)(F)F)cc1 | inactive
52 | CC1CN(CCOc2ccccc2-c2ccccc2)CC(C)O1 (stereo not given) | inactive
53 | CNC(=O)c1sccc1Oc1ccc(F)cc1[N+](=O)[O-] | inconclusive: 29.1 µM [activator, single point]
54 | Cc1cc(C)nc(N/N=C/c2cc(Br)ccc2O)n1 | inconclusive: 6.51 µM [activator, partial curve, poor fit]
55 | CCN(C(=O)CSc1nc2ccccc2n1CCc1ccccc1)C1CCS(=O)(=O)C1 (stereo not given) | inconclusive: 29.1 µM [activator, partial curve, poor fit]
56 | CCN1CCN(c2ncc(C(=O)Nc3cc(Cl)ccc3OC)c3ccccc23)CC1 | inconclusive: 20.6 µM [activator, single point]
57 | CN=C(c1ccccc1)c1c(C)cccc1C | inconclusive: 3.66 µM [activator, single point]
58 | O=C(CN(Cc1ccc(F)cc1)C(=O)CNS(=O)(=O)c1ccccc1)NCC1CCCO1 (stereo not given) | inactive
59 | COc1cc(/C=C2\CCCc3c2nc2ccccc2c3C(=O)O)cc(OC)c1O | active: 25.9 µM
60 | O=C(CNC(=O)c1cccs1)NCCN1CCN(Cc2ccccc2)CC1 | inconclusive: 29.1 µM [activator, partial curve, poor fit]
61 | S=C(NCCc1cccc(Cl)c1)NC1CCCCC1 | inconclusive: 23.1 µM [activator, single point]
62 | O=C(CCl)Nc1cccc2ncccc12 | inconclusive: 20.6 µM [activator, single point]
63 | O/N=C\c1ccccc1Oc1ccc(F)cc1 | inactive
64 | CCC(C)c1ccccc1N1CC(C(=O)NCCC2=CCCCC2)CC1=O (stereo not given) | inactive
65 | O=C(N/N=C/c1ccc2c(c1)OCO2)/C(=C/c1ccc2c(c1)OCO2)NC(=O)c1ccccc1 | inactive
66 | CC(=O)Nc1ccc(Nc2nc3c(S(=O)(=O)c4ccc(C)c(C)c4)nnn3c3ccccc23)cc1 | active: 18.4 µM
67 | CC1CC(C)(C)CC2(C1)NC(=O)N(CC(=O)N(Cc1ccccc1)c1ccccc1)C2=O (stereo not given) | inconclusive: 23.1 µM [activator, partial curve, poor fit]
68 | COc1cc([N+](=O)[O-])cc(/C=N/NC(=O)c2ccc(NC(=O)c3ccc(C)cc3)cc2)c1O | inconclusive: 2.06 µM [activator, full curve]
69 | COc1ccc(NC2=C(NC(C)=O)C(=O)c3ccccc3C2=O)cc1 | inconclusive: 29.1 µM [activator, single point]
70 | OCCN1CCN(CC(O)COc2ccc(C34CC5CC(CC(C5)C3)C4)cc2)CC1 (stereo not given) | inconclusive: 20.6 µM [activator, single point]
